Some results were stated once for a whole list of compounds, not compound by compound.
What was measured:
Ctenocephalides felis = assay type: in vivo; settings: application rate of 100 ppm in cattle blood; after 2 days
Experimental: (§1) Solvent: dimethyl sulfoxide
Approximately 20 adult unfed (Ctenocepahlides felis) are placed in flea chambers. […] The blood chamber is heated to 37° C. whereas the flea chamber is kept at room temperature.

Boophilus microplus = Boophilus microplus test (injection); assay type: in vivo; settings: application rate of 20 μg/animal, after 7 days
Experimental: as §1
Five adult engorged female ticks (Boophilus microplus) are injected with […] compound solution into the abdomen. Ticks are transferred into replica plates and incubated in a climate chamber for a period of time. Egg deposition of fertile eggs is monitored.
After 7 days mortality in % is determined. 100% means that all eggs are infertile; 0% means that all eggs are fertile. […]

[1] = test system: Lucilia cuprina 1st instar larvae; assay type: in vivo; settings: application rate of 100 ppm; after 48 hrs
Experimental: species: Lucilia cuprina 1st instar larvae (age 24 hrs)
solvent: dimethyl sulfoxide
Serial dilutions are made to obtain the desired rates. Approximately 20 Lucilia cuprina 1st instar larvae are transferred into a test tube containing 1 cm^3 of minced horse meat and 0.5 ml aqueous dilution of test compound. After 48 hrs percentage of larval mortality are recorded. 100% efficacy=all larvae are killed, […].

Musca domestica = settings: application rate of 100 ppm; adults; after 2 days
Experimental: as §1
Prior to the assay, a piece of kitchen sponge is soaked with a mixture of sugar and compound solution and placed into a container. 10 adults (Musca domestica) are placed into the container and closed with a perforated lid. After 2 days mortality in % is determined 100% means that all the flies have been killed; 0% means that none of the flies have been killed.

Row | SMILES | activity (mortality in %) (Ctenocephalides felis) [%] | activity (mortality in %; 100% means that all eggs are infertile) (Boophilus microplus) [%] | activity (percentage of larval mortality) [1] [%] | activity (mortality in %) (Musca domestica) [%]
1 | Cc1cc(C(F)(C(F)(F)F)C(F)(F)F)cc(C)c1NC(=O)c1ccc(CNC(=O)CC2CC2)cc1 [Compound 5-8] | 95 | 100 | 100 | –
2 | Cc1cc(C(F)(C(F)(F)F)C(F)(F)F)cc(C)c1NC(=O)c1ccc(CNC(=O)c2cccnc2F)cc1 [Compound 5-19] | 90 | 100 | 80 | –
3 | CCC(=O)NCc1ccc(C(=O)Nc2c(C)cc(C(F)(C(F)(F)F)C(F)(F)F)cc2C)c(F)c1 [Compound 5-22] | 100 | – | 100 | –
4 | Cc1cc(C(F)(C(F)(F)F)C(F)(F)F)cc(C)c1NC(=O)c1ccc(CNC(=O)CC2CC2)cc1F [Compound 5-24] | 95 | 100 | 100 | –
5 | CCc1cc(C(F)(C(F)(F)F)C(F)(F)F)cc(C)c1NC(=O)c1ccc(CNC(=O)CC(F)(F)F)cc1 [Compound 5-32] | 95 | 100 | 80 | –
6 | CCc1cc(C(F)(C(F)(F)F)C(F)(F)F)cc(C)c1NC(=O)c1ccc(CNC(=O)c2ccc(F)cc2)cc1 [Compound 5-36] | – | 100 | 90 | –
7 | CCc1cc(C(F)(C(F)(F)F)C(F)(F)F)cc(C)c1NC(=O)c1cc(F)c(CNC(=O)CC2CC2)cc1F [Compound 5-61] | 80 | 100 | 100 | –
8 | CCc1cc(C(F)(C(F)(F)F)C(F)(F)F)cc(C)c1NC(=O)c1cc(F)c(CNC(=O)CC(F)(F)F)cc1F [Compound 5-62] | 90 | 100 | 90 | –
9 | CCC(=O)NCc1ccc(C(=O)Nc2c(C)cc(C(F)(C(F)(F)F)C(F)(F)F)cc2CC)cc1F [Compound 5-72] | 90 | – | 100 | –
10 | CCc1cc(C(F)(C(F)(F)F)C(F)(F)F)cc(C)c1NC(=O)c1ccc(CNC(=O)CC2CC2)c(Cl)c1 [Compound 5-80] | 90 | 100 | 80 | –
11 | CCC(=O)NCc1ccc(C(=O)Nc2c(C)cc(C(F)(C(F)(F)F)C(F)(F)F)cc2CC)cc1Br [Compound 5-86] | 100 | 100 | 100 | –
12 | CCc1cc(C(F)(C(F)(F)F)C(F)(F)F)cc(C)c1NC(=O)c1ccc(CNC(=O)c2cccnc2F)c(Br)c1 [Compound 5-93] | 80 | 100 | – | 100
13 | CCC(=O)NCc1ccc(C(=O)Nc2c(C)cc(C(F)(C(F)(F)F)C(F)(F)F)cc2CC)cc1C [Compound 5-100] | 80 | 100 | 100 | –
14 | CCc1cc(C(F)(C(F)(F)F)C(F)(F)F)cc(C)c1NC(=O)c1ccc(CNC(=O)CC2CC2)c(C)c1 [Compound 5-101] | 100 | 100 | 80 | –
15 | CCc1cc(C(F)(C(F)(F)F)C(F)(F)F)cc(C)c1NC(=O)c1ccc(CNC(=O)c2cccnc2F)c(C)c1 [Compound 5-103] | 80 | 100 | – | 80
16 | CCc1cc(C(F)(C(F)(F)F)C(F)(F)F)cc(C)c1NC(=O)c1ccc(CNC(=O)CC2CC2)c([N+](=O)[O-])c1 [Compound 5-117] | 100 | 100 | 80 | –
17 | CCC(=O)NCc1ccc(C(=O)Nc2c(C)cc(C(F)(C(F)(F)F)C(F)(F)C(F)(F)F)cc2CC)cc1 (centres unmarked) [Compound 5-139] | – | – | 80 | –
18 | CCc1cc(C(F)(C(F)(F)F)C(F)(F)C(F)(F)F)cc(C)c1NC(=O)c1ccc(CNC(=O)CC(F)(F)F)cc1 (centres unmarked) [Compound 5-142] | – | 100 | – | 100

Row | SMILES | activity (mortality in %) (Ctenocephalides felis) [%] | activity (mortality in %; 100% means that all eggs are infertile) (Boophilus microplus) [%] | activity (percentage of larval mortality) [1] [%] | activity (mortality in %) (Musca domestica) [%]
19 | CCc1cc(C(F)(C(F)(F)F)C(F)(F)C(F)(F)F)cc(C)c1NC(=O)c1ccc(CNC(C)=O)c(F)c1 (centres unmarked) [Compound 5-144] | 100 | 100 | 100 | –
20 | CCC(=O)NCc1ccc(C(=O)Nc2c(C)cc(C(F)(C(F)(F)F)C(F)(F)C(F)(F)F)cc2CC)cc1F (centres unmarked) [Compound 5-145] | 95 | 100 | 100 | –
21 | CCc1cc(C(F)(C(F)(F)F)C(F)(F)C(F)(F)F)cc(C)c1NC(=O)c1ccc(CNC(=O)CC2CC2)c(F)c1 (centres unmarked) [Compound 5-147] | 95 | 100 | 100 | –
22 | CCC(=O)NCc1ccc(C(=O)Nc2c(C)cc(C(F)(C(F)(F)F)C(F)(F)C(F)(F)F)cc2CC)cc1Br (centres unmarked) [Compound 5-158] | 100 | 100 | 100 | –
23 | CCc1cc(C(F)(C(F)(F)F)C(F)(F)C(F)(F)F)cc(C)c1NC(=O)c1ccc(CNC(=O)CC2CC2)c(Br)c1 (centres unmarked) [Compound 5-160] | 100 | 100 | 100 | –
24 | CCc1cc(C(F)(C(F)(F)F)C(F)(F)F)cc(C)c1NC(=O)c1ccc(CN(C)C(=O)CC2CC2)cc1 [Compound 5-187] | – | 100 | 80 | –
25 | CCc1cc(C(F)(C(F)(F)F)C(F)(F)F)cc(C)c1NC(=O)c1ccc(CNC(C)=O)c(I)c1 [Compound 5-190] | 95 | 100 | 90 | –
26 | CCc1cc(C(F)(C(F)(F)F)C(F)(F)C(F)(F)F)cc(C)c1NC(=O)c1ccc(CNC(=O)CC2CC2)c(I)c1 (centres unmarked) [Compound 5-197] | 100 | 100 | 80 | –
27 | CCc1cc(C(F)(C(F)(F)F)C(F)(F)C(F)(F)F)cc(C)c1NC(=O)c1ccc(CNC(C)=O)c(F)c1F (centres unmarked) [Compound 5-201] | 95 | 100 | 80 | –
28 | CCC(=O)NCc1ccc(C(=O)Nc2c(C)cc(C(F)(C(F)(F)F)C(F)(F)C(F)(F)F)cc2CC)c(F)c1F (centres unmarked) [Compound 5-202] | 95 | 100 | 90 | –
29 | CCc1cc(C(F)(C(F)(F)F)C(F)(F)C(F)(F)F)cc(C)c1NC(=O)c1ccc(CNC(=O)CC2CC2)c(F)c1F (centres unmarked) [Compound 5-204] | 100 | 100 | 90 | –
30 | CCc1cc(C(F)(C(F)(F)F)C(F)(F)F)cc(C)c1NC(=O)c1ccc(CNC(C)=O)c2ccccc12 [Compound 6-2] | 100 | 100 | 100 | –
31 | CCc1cc(C(F)(C(F)(F)F)C(F)(F)F)cc(C)c1NC(=O)c1ccc(CNC(=O)CC2CC2)c2ccccc12 [Compound 6-5] | 100 | 100 | 80 | –
32 | CCc1cc(C(F)(C(F)(F)F)C(F)(F)F)cc(C)c1NC(=O)c1ccc(CNC(=O)CC(F)(F)F)c2ccccc12 [Compound 6-6] | – | 100 | 100 | –
33 | CCc1cc(C(F)(C(F)(F)F)C(F)(F)F)cc(C)c1NC(=O)c1ccc(CNC(=O)c2cccnc2F)c2ccccc12 [Compound 6-7] | 100 | 100 | 80 | –
34 | CCc1cc(C(F)(C(F)(F)F)C(F)(F)F)cc(C)c1NC(=O)c1ccc(C(C)NC(=O)CC2CC2)cc1 (centres unmarked) [Compound 9-5] | 95 | 100 | 100 | –
35 | CCc1cc(C(F)(C(F)(F)F)C(F)(F)F)cc(C)c1NC(=O)c1ccc2c(c1)CCC2NC(=O)CSC (centres unmarked) [Compound 10-22] | 100 | 100 | – | –
36 | N#Cc1ccc(C(=O)Nc2c(Cl)cc(C(F)(C(F)(F)F)C(F)(F)F)cc2Cl)cc1 [Compound I-24] | – | 100 | 100 | –

From US9227923B2, “Pesticidal carboxamides” (Bayer Intellectual Property GmbH, priority 2009, dated 2016)
